The values below come from publication PMC8324300.

The target of one assay is T1, GST-CHMP7 393-CT (human) (UniProt Q8WUX9).
T1 sequence: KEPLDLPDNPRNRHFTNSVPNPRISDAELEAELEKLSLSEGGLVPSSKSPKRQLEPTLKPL
Description: pull-down; GST-tagged CHMP7 fragments and YFP-VPS4^MIT co-expressed in 293T cells; lysis in 150 mM NaCl, 50 mM Tris-Cl pH 7.4, 1% NP-40; capture on glutathione sepharose for 2 hr; blots with anti-GST and anti-GFP.

In assay [1] the target is T2, GST-CHMP7 393-CT ES-RR (human) (UniProt Q8WUX9).
T2 sequence: T1 sequence with E32R, S37R
The description is as above.

Substitutions are numbered along the chain they refer to. Results are given in words; binding and its absence hold for the method and conditions named. Binding seen in cells or lysates may run through a third protein. For some assays here: Binding can be weak; no strength is given. Where a sequence is shown, tags or fusion partners need not be part of it.

Regarding “YFP-VPS4^MIT (VPS4 MIT domain, residues 1-122) (domain or fragment)”, the binding entry was “no binding” with GST-CHMP7 393-CT (human) and “binds” in assay [1].
